The results in this text go back to paper PMC11624273.

Sequences of proteins named here, by UniProt entry; tags and fusion partners are left off.
UniProt Q9GZV5: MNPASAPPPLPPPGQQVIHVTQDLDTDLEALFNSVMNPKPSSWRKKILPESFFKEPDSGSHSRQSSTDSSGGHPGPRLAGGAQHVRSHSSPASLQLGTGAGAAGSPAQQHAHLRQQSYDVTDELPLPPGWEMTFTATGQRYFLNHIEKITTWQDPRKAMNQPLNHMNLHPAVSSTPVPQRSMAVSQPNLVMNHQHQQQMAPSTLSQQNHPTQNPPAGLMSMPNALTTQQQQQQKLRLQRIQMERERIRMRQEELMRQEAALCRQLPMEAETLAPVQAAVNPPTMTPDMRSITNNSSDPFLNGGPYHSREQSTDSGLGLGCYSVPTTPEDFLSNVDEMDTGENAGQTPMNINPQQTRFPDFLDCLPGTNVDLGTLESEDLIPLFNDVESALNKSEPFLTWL

No constants are given. Whether binding was seen depends on the method and setting. Binding seen in cells or lysates may run through a third protein.

This assay addresses MPP7 ΔPDZ (pCDNA3-Flag-Mpp7 △PDZ) (human) (UniProt Q5T2T1). Nature of the assay: co-IP; lysates of transfected 293T cells incubated with anti-FLAG M2 magnetic beads or anti-V5 agarose beads at 4 °C for 4 h or overnight; washed three times with NP-40 lysis buffer (50 mM Tris-HCl pH 8.0, 150 mM NaCl, 1% NP-40, 0.5 mM DTT) and once with PBS; Western blot with anti-HA, anti-V5 or ….

Consider V5-TAZ (from UniProt Q9GZV5 1-400), for which the binding result was “no binding”.
